In article doi:10.1101/2024.09.10.612038 one finds binding data, which are given here for three substances.

Protein sequences, listed by entry. Tags and fused reporters are not part of them.
UniProt A5YKK6, whole entry: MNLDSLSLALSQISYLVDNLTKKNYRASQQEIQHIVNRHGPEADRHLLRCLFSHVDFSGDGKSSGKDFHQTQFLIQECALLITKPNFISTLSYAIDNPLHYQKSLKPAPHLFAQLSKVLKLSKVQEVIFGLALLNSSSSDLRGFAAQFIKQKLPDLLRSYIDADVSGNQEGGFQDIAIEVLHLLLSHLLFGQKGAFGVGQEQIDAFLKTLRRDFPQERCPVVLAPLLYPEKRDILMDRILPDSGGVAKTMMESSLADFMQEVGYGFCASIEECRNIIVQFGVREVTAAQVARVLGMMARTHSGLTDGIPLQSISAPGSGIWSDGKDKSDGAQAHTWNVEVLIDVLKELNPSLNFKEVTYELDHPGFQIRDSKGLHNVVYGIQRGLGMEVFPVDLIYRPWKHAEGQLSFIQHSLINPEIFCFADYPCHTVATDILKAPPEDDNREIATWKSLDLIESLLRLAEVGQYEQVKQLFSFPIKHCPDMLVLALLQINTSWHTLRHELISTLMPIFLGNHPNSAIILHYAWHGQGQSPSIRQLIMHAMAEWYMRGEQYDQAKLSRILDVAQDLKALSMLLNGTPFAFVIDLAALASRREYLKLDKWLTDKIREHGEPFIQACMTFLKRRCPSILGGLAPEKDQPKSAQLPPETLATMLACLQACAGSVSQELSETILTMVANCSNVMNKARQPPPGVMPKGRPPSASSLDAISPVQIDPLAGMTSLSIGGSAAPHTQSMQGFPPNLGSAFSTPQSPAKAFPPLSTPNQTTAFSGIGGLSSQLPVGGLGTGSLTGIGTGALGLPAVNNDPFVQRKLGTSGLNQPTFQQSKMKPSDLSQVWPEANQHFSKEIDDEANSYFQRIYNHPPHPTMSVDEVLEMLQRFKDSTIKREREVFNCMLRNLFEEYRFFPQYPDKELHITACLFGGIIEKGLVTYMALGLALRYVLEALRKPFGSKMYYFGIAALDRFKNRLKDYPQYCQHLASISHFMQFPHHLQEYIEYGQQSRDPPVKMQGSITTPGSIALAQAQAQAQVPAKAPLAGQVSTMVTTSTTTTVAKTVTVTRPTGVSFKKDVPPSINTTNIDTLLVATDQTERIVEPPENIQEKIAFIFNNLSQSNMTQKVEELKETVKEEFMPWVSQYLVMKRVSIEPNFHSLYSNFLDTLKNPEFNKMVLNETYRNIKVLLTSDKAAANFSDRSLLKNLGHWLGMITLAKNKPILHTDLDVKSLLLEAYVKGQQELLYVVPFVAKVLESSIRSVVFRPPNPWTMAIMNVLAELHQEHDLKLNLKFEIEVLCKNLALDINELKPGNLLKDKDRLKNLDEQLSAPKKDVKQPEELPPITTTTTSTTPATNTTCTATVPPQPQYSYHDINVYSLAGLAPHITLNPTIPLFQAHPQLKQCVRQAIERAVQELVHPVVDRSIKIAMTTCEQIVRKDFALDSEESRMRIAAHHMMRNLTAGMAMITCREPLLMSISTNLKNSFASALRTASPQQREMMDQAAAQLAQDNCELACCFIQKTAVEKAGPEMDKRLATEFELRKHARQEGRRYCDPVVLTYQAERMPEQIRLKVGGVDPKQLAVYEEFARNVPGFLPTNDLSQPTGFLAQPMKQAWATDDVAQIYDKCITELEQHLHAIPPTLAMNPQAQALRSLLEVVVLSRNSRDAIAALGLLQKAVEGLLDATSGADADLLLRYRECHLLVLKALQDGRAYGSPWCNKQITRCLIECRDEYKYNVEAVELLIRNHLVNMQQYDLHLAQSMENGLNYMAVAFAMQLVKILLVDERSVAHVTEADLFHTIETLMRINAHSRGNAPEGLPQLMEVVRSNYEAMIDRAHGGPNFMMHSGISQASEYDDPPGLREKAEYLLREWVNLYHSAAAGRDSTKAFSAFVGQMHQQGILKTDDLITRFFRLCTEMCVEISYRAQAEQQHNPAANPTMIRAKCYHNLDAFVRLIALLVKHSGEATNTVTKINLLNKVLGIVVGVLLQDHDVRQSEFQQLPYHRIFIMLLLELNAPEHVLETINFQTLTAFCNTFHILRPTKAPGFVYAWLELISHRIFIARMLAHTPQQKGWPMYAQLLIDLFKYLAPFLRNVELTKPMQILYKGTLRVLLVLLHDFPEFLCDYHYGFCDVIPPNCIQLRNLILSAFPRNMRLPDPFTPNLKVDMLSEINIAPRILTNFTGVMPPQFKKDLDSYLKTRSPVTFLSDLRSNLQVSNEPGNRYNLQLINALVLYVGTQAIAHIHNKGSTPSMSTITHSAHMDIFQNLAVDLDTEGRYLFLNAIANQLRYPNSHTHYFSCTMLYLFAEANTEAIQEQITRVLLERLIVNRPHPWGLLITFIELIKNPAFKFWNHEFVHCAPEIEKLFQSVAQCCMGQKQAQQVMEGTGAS
UniProt Q9NZN8, whole entry: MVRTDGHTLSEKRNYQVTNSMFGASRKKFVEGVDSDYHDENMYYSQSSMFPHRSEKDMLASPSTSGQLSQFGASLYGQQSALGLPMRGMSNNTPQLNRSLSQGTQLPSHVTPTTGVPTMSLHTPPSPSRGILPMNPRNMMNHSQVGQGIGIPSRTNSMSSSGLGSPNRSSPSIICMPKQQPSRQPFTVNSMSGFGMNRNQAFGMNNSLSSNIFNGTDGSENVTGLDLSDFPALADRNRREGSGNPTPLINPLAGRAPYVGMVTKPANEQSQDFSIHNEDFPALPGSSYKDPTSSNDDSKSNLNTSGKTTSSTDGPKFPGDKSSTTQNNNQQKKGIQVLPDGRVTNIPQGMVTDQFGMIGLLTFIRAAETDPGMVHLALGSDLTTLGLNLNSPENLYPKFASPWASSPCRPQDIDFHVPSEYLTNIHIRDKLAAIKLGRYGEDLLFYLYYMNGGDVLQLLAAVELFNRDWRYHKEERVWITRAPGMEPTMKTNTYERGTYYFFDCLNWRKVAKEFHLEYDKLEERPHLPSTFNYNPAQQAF
UniProt Q92600, whole entry: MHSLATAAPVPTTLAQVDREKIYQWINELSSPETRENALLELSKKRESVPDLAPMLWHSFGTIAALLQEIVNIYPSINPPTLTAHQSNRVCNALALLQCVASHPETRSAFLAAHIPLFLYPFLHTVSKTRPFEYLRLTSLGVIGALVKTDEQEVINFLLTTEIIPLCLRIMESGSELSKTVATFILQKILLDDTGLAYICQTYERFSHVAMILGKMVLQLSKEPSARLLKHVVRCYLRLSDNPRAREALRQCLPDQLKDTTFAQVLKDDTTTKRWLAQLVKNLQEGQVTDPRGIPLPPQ
UniProt O75175, whole entry: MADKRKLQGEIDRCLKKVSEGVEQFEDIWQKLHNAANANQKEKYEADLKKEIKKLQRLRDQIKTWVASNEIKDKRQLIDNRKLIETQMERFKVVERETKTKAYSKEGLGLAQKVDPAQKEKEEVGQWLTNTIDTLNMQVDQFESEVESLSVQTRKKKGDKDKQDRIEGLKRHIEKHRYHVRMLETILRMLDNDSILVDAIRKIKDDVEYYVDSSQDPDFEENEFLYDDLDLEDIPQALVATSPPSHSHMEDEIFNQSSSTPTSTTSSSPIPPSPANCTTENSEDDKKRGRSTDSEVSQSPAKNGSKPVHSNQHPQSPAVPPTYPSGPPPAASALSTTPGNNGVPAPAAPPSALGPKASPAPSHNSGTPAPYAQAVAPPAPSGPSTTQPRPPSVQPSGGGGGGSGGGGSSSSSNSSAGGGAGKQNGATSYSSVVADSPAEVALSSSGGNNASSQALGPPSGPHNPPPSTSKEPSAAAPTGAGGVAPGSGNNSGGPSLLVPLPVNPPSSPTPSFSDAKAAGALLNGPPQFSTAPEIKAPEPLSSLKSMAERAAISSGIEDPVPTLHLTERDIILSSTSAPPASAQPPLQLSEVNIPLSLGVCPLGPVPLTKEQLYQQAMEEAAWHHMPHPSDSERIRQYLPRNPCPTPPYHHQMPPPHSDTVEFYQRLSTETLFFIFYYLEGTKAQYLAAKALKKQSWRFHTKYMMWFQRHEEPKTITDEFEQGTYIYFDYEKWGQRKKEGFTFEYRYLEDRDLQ

These are yes or no findings as the source states them, for the method shown. Some entries that bind do so weakly or less than the wild type.

In assay [1] the target is CNOT1^AID (human) (UniProt A5YKK6). In words: SEC.
In assay [2] the target is CNOT2 (human (endogenous in DLD-1)) (UniProt Q9NZN8). In words: SEC. (In general: In gel filtration, larger molecules generally elute earlier.)

Consider CNOT9 (from UniProt Q92600 1-299), for which, in assay [1], the binding entry is given as “binds”.

Consider CNOT3 (from UniProt O75175 1-753), for which, in assay [2], the binding result was “binds”. Regarding CNOT2 (from UniProt Q9NZN8 1-540), the binding entry in assay [1] is recorded as “binds”.
